Assay results published in patent US20140038203A1, “METHODS FOR DETECTING OR PREDICTING KIDNEY DISEASE” (MUSC FOUNDATION FOR RESEARCH DEVELOPMENT, priority 2012, published 2014).

B1: Mucin-like protein 1 (protein, UniProt Q96DR8 21-90, looked up)
Mucin-like protein 1: NPTTAAPADTYPATGPADDEAPDAETTAAATTATTAAPTTATTAASTTARKDIPVLPKWVGDLPNGRVCP
B2: Semenogelin-2 (protein, UniProt Q02383 24-582, looked up)
Semenogelin-2: QKGGSKGQLPSGSSQFPHGQKGQHYFGQKDQQHTKSKGSFSIQHTYHVDINDHDWTRKSQQYDLNALHKATKSKQHLGGSQQLLNYKQEGRDHDKSKGHFHMIVIHHKGGQAHHGTQNPSQDQGNSPSGKGLSSQCSNTEKRLWVHGLSKEQASASGAQKGRTQGGSQSSYVLQTEELVVNKQQRETKNSHQNKGHYQNVVDVREEHSSKLQTSLHPAHQDRLQHGPKDIFTTQDELLVYNKNQHQTKNLSQDQEHGRKAHKISYPSSRTEERQLHHGEKSVQKDVSKGSISIQTEEKIHGKSQNQVTIHSQDQEHGHKENKISYQSSSTEERHLNCGEKGIQKGVSKGSISIQTEEQIHGKSQNQVRIPSQAQEYGHKENKISYQSSSTEERRLNSGEKDVQKGVSKGSISIQTEEKIHGKSQNQVTIPSQDQEHGHKENKMSYQSSSTEERRLNYGGKSTQKDVSQSSISFQIEKLVEGKSQIQTPNPNQDQWSGQNAKGKSGQSADSKQDLLSHEQKGRYKQESSESHNIVITEHEVAQDDHLTQQYNEDRNPIST
B3: Semenogelin-1 (protein, UniProt P04279 24-462, looked up)
Semenogelin-1: QKGGSKGRLPSEFSQFPHGQKGQHYSGQKGKQQTESKGSFSIQYTYHVDANDHDQSRKSQQYDLNALHKTTKSQRHLGGSQQLLHNKQEGRDHDKSKGHFHRVVIHHKGGKAHRGTQNPSQDQGNSPSGKGISSQYSNTEERLWVHGLSKEQTSVSGAQKGRKQGGSQSSYVLQTEELVANKQQRETKNSHQNKGHYQNVVEVREEHSSKVQTSLCPAHQDKLQHGSKDIFSTQDELLVYNKNQHQTKNLNQDQQHGRKANKISYQSSSTEERRLHYGENGVQKDVSQSSIYSQTEEKAQGKSQKQITIPSQEQEHSQKANKISYQSSSTEERRLHYGENGVQKDVSQRSIYSQTEKLVAGKSQIQAPNPKQEPWHGENAKGESGQSTNREQDLLSHEQKGRHQHGSHGGLDIVIIEQEDDSDRHLAQHLNNDRNPLFT
B4: Endonuclease domain-containing 1 protein (protein, UniProt O94919 22-500, looked up)
Endonuclease …: RLVGEEEAGFGECDKFFYAGTPPAGLAADSHVKICQRAEGAERFATLYSTRDRIPVYSAFRAPRPAPGGAEQRWLVEPQIDDPNSNLEEAINEAEAITSVNSLGSKQALNTDYLDSDYQRGQLYPFSLSSDVQVATFTLTNSAPMTQSFQERWYVNLHSLMDRALTPQCGSGEDLYILTGTVPSDYRVKDKVAVPEFVWLAACCAVPGGGWAMGFVKHTRDSDIIEDVMVKDLQKLLPFNPQLFQNNCGETEQDTEKMKKILEVVNQIQDEERMVQSQKSSSPLSSTRSKRSTLLPPEASEGSSSFLGKLMGFIATPFIKLFQLIYYLVVAILKNIVYFLWCVTKQVINGIESCLYRLGSATISYFMAIGEELVSIPWKVLKVVAKVIRALLRILCCLLKAICRVLSIPVRVLVDVATFPVYTMGAIPIVCKDIALGLGGTVSLLFDTAFGTLGGLFQVVFSVCKRIGYKVTFDNSGEL
B5: Lactotransferrin (protein, UniProt P02788 20-710, looked up)
Lactotransferrin: GRRRSVQWCAVSQPEATKCFQWQRNMRKVRGPPVSCIKRDSPIQCIQAIAENRADAVTLDGGFIYEAGLAPYKLRPVAAEVYGTERQPRTHYYAVAVVKKGGSFQLNELQGLKSCHTGLRRTAGWNVPIGTLRPFLNWTGPPEPIEAAVARFFSASCVPGADKGQFPNLCRLCAGTGENKCAFSSQEPYFSYSGAFKCLRDGAGDVAFIRESTVFEDLSDEAERDEYELLCPDNTRKPVDKFKDCHLARVPSHAVVARSVNGKEDAIWNLLRQAQEKFGKDKSPKFQLFGSPSGQKDLLFKDSAIGFSRVPPRIDSGLYLGSGYFTAIQNLRKSEEEVAARRARVVWCAVGEQELRKCNQWSGLSEGSVTCSSASTTEDCIALVLKGEADAMSLDGGYVYTAGKCGLVPVLAENYKSQQSSDPDPNCVDRPVEGYLAVAVVRRSDTSLTWNSVKGKKSCHTAVDRTAGWNIPMGLLFNQTGSCKFDEYFSQSCAPGSDPRSNLCALCIGDEQGENKCVPNSNERYYGYTGAFRCLAENAGDVAFVKDVTVLQNTDGNNNEAWAKDLKLADFALLCLDGKRKPVTEARSCHLAMAPNHAVVSRMDKVERLKQVLLHQQAKFGRNGSDCPDKFCLFQSETKNLLFNDNTECLARLHGKTTYEKYLGPQYVAGITNLKKCSTSPLLEACEFLRK
B6: WNT1-inducible-signaling pathway protein 2 (protein, UniProt O76076 24-250, looked up)
CCN family member 5: QLCPTPCTCPWPPPRCPLGVPLVLDGCGCCRVCARRLGEPCDQLHVCDASQGLVCQPGAGPGGRGALCLLAEDDSSCEVNGRLYREGETFQPHCSIRCRCEDGGFTCVPLCSEDVRLPSWDCPHPRRVEVLGKCCPEWVCGQGGGLGTQPLPAQGPQFSGLVSSLPPGVPCPEWSTAWGPCSTTCGLGMATRVSNQNRFCRLETQRRLCLSRPCPPSRGRSPQNSAF
B7: Complement factor I (protein, UniProt P05156 19-583, looked up)
Complement factor I: KVTYTSQEDLVEKKCLAKKYTHLSCDKVFCQPWQRCIEGTCVCKLPYQCPKNGTAVCATNRRSFPTYCQQKSLECLHPGTKFLNNGTCTAEGKFSVSLKHGNTDSEGIVEVKLVDQDKTMFICKSSWSMREANVACLDLGFQQGADTQRRFKLSDLSINSTECLHVHCRGLETSLAECTFTKRRTMGYQDFADVVCYTQKADSPMDDFFQCVNGKYISQMKACDGINDCGDQSDELCCKACQGKGFHCKSGVCIPSQYQCNGEVDCITGEDEVGCAGFASVTQEETEILTADMDAERRRIKSLLPKLSCGVKNRMHIRRKRIVGGKRAQLGDLPWQVAIKDASGITCGGIYIGGCWILTAAHCLRASKTHRYQIWTTVVDWIHPDLKRIVIEYVDRIIFHENYNAGTYQNDIALIEMKKDGNKKDCELPRSIPACVPWSPYLFQPNDTCIVSGWGREKDNERVFSLQWGEVKLISNCSKFYGNRFYEKEMECAGTYDGSIDACKGDSGGPLVCMDANNVTYVWGVVSWGENCGKPEFPGVYTKVANYFDWISYHVGRPFISQYNV
B8: Secretogranin-1 (protein, UniProt P05060 21-677, looked up)
Secretogranin-1: MPVDNRNHNEGMVTRCIIEVLSNALSKSSAPPITPECRQVLKTSRKDVKDKETTENENTKFEVRLLRDPADASEAHESSSRGEAGAPGEEDIQGPTKADTEKWAEGGGHSRERADEPQWSLYPSDSQVSEEVKTRHSEKSQREDEEEEEGENYQKGERGEDSSEEKHLEEPGETQNAFLNERKQASAIKKEELVARSETHAAGHSQEKTHSREKSSQESGEETGSQENHPQESKGQPRSQEESEEGEEDATSEVDKRRTRPRHHHGRSRPDRSSQGGSLPSEEKGHPQEESEESNVSMASLGEKRDHHSTHYRASEEEPEYGEEIKGYPGVQAPEDLEWERYRGRGSEEYRAPRPQSEESWDEEDKRNYPSLELDKMAHGYGEESEEERGLEPGKGRHHRGRGGEPRAYFMSDTREEKRFLGEGHHRVQENQMDKARRHPQGAWKELDRNYLNYGEEGAPGKWQQQGDLQDTKENREEARFQDKQYSSHHTAEKRKRLGELFNPYYDPLQWKSSHFERRDNMNDNFLEGEEENELTLNEKNFFPEYNYDWWEKKPFSEDVNWGYEKRNLARVPKLDLKRQYDRVAQLDQLLHYRKKSAEFPDFYDSEEPVSTHQEAENEKDRADQTVLTEDEKKELENLAAMDLELQKIAEKFSQRG
B9: Flavin reductase (protein, UniProt P30043 2-206, looked up)
Flavin reductase (NADPH): AVKKIAIFGATGQTGLTTLAQAVQAGYEVTVLVRDSSRLPSEGPRPAHVVVGDVLQAADVDKTVAGQDAVIVLLGTRNDLSPTTVMSEGARNIVAAMKAHGVDKVVACTSAFLLWDPTKVPPRLQAVTDDHIRMHKVLRESGLKYVAVMPPHIGDQPLTGAYTVTLDGRGPSRVISKHDLGHFMLRCLTTDEYDGHSTYPSHQYQ
B10: Bisphosphoglycerate mutase (protein, UniProt P07738 2-259, looked up)
Bisphosphoglycerate mutase: SKYKLIMLRHGEGAWNKENRFCSWVDQKLNSEGMEEARNCGKQLKALNFEFDLVFTSVLNRSIHTAWLILEELGQEWVPVESSWRLNERHYGALIGLNREQMALNHGEEQVRLWRRSYNVTPPPIEESHPYYQEIYNDRRYKVCDVPLDQLPRSESLKDVLERLLPYWNERIAPEVLRGKTILISAHGNSSRALLKHLEGISDEDIINITLPTGVPILLELDENLRAVGPHQFLGDQEAIQAAIKKVEDQGKVKQAKK
B11: Calreticulin (protein, UniProt P27797 18-417, looked up)
Calreticulin: EPAVYFKEQFLDGDGWTSRWIESKHKSDFGKFVLSSGKFYGDEEKDKGLQTSQDARFYALSASFEPFSNKGQTLVVQFTVKHEQNIDCGGGYVKLFPNSLDQTDMHGDSEYNIMFGPDICGPGTKKVHVIFNYKGKNVLINKDIRCKDDEFTHLYTLIVRPDNTYEVKIDNSQVESGSLEDDWDFLPPKKIKDPDASKPEDWDERAKIDDPTDSKPEDWDKPEHIPDPDAKKPEDWDEEMDGEWEPPVIQNPEYKGEWKPRQIDNPDYKGTWIHPEIDNPEYSPDPSIYAYDNFGVLGLDLWQVKSGTIFDNFLITNDEAYAEEFGNETWGVTKAAEKQMKDKQDEEQRLKEEEEDKKRKEEEEAEDKEDDEDKDEDEEDEEDKEEDEEEDVPGQAKDEL
B12: Zymogen granule protein 16 homolog B (protein, UniProt Q96DA0 17-172, looked up)
Pancreatic adenocarcinoma …: GKMYGPGGGKYFSTTEDYDHEITGLRVSVGLLLVKSVQVKLGDSWDVKLGALGGNTQEVTLQPGEYITKVFVAFQAFLRGMVMYTSKDRYFYFGKLDGQISSAYPSQEGQVLVGIYGQYQLLGIKSIGFEWNYPLEEPTTEPPVNLTYSANSPVGR

Test: RRT study: LC-MS/MS urinary proteomics, AKI after cardiac surgery, RRT vs No RRT
Design: species or system human
Conditions: patients who did vs did not require RRT/dialysis; for Up or Down: direction of urinary abundance; for Mean Fold Change: read with the Up or Down column

| Molecule | Up or Down | Mean Fold Change |
| --- | --- | --- |
| B1 | Up | 4.066 |
| B2 | Up |  |
| B3 | Up |  |
| B4 | Up | 1.924 |
| B5 | Up | 1.538 |
| B6 | Up | 1.411 |
| B7 | Up | 1.705 |
| B8 | Up | 1.244 |
| B9 | Up | 1.039 |
| B10 | Up | 4.091 |
| B11 | Up |  |
| B12 | Up | 1.156 |
